Measurements reported in PubChem BioAssay AID493246 (Drosophila RNAi Screening Center, 2011)
The deposit covers about 21,000 reagents; below is a random part of those that have a named target and a result. Over the whole deposit, 429 (2%) were called active. 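Values are raw and not normalised between plates; calls rest on per-plate z-scores that were not deposited.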 Unmarked entries are inactive. A plus sign joins genes that one reagent is predicted to hit. Reagent sequences are not shown. Not stated in the record: the amount of reagent, the time to read-out.

Screen: 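Genome-wide search for dsRNAs that reduce cell number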 (primary screen)
System: Drosophila Kc and S2R+ cells
Reagent: long dsRNA against Drosophila genes
Measurement: 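Cell number per well after knock-down, printed as raw plate values; calls were based on per-plate z-scores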
Direction: Kc cell number and S2R+ cell number: higher = more cells remaining
Active means: 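Active when the per-plate z-score of cell number is 3 or more in the direction of fewer cells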

Target gene	amplicon	Kc cell number, rep 1	Kc cell number, rep 2	S2R+ cell number, rep 1	S2R+ cell number, rep 2
CG8006	DRSC10949	1.32e6	1.35e6	1.18e6	9.45e5
CG14339	DRSC00369	1.49e6	1.51e6	1.03e6	1.17e6
veg (retired record)	DRSC07714	1.47e6	1.59e6	1.17e6	1.24e6
CG13895	DRSC08365	1.23e6	1.46e6	1.14e6	1.22e6
Unc-115a	DRSC12749	1.53e6	1.67e6	1.08e6	1.18e6
tipE	DRSC08738	1.31e6	1.40e6	1.33e6	1.26e6
Daao1	DRSC06131	1.53e6	1.56e6	1.35e6	1.52e6
UbcE2M	DRSC10828	1.46e6	1.31e6	1.25e6	1.48e6
CG4554	DRSC04473	1.26e6	1.32e6	1.03e6	1.13e6
Gfat2	DRSC14598	5.47e5		8.51e5	
Orc2	DRSC16776	1.46e6	1.49e6	1.18e6	1.24e6
SrpRalpha	DRSC20251	5.94e5		7.71e5	
CG6839	DRSC10723	1.60e6	1.62e6	1.41e6	1.51e6
Aplip1	DRSC07947	1.74e6	1.73e6	1.05e6	1.27e6
Aplip1	DRSC08697	1.47e6	1.29e6	1.00e6	1.24e6
ATPCL	DRSC05913	1.50e6	1.53e6	1.02e6	1.19e6
Jon99Cii	DRSC16858	1.47e6	1.52e6	1.07e6	1.14e6
CG7900	DRSC16336	1.33e6	1.37e6	9.82e5	1.12e6
CG1750	DRSC15240	4.48e5		7.48e5	
CG7744	DRSC07036	1.20e6	1.36e6	1.08e6	9.87e5
CG15784	DRSC18090	1.44e6	1.52e6	1.05e6	1.21e6
Cpr67Fb	DRSC10314	1.28e6	1.43e6	1.19e6	1.27e6
tzn	DRSC11755	1.82e6	1.89e6	1.37e6	1.45e6
kar	DRSC14496	1.46e6	1.49e6	1.26e6	1.35e6
Pex3	DRSC10731	1.51e6	1.53e6	1.38e6	1.39e6
nahoda	DRSC03954	5.49e5		8.78e5	
nahoda	DRSC04126	1.49e6	1.58e6	1.23e6	1.29e6
ZnT77C	DRSC11766	1.41e6	1.44e6	1.24e6	1.29e6
ZnT77C	DRSC11767	1.43e6	1.51e6	1.25e6	1.32e6
MED16	DRSC04506	1.64e6	1.88e6	1.26e6	2.72e5
Dhc36C	DRSC03315	1.52e6	1.57e6	1.23e6	1.39e6
odd	DRSC00832	1.12e6 (active)	1.01e6	5.03e5	5.88e5
Alp4	DRSC14116	1.45e6	1.47e6	1.07e6	1.11e6
Polr2J	DRSC02995	1.51e6	1.62e6	1.16e6	1.33e6
CG15109	DRSC06536	1.52e6	1.55e6	1.17e6	1.25e6
Dph5	DRSC16653	1.49e6	1.55e6	1.16e6	1.24e6
CG1146	DRSC08189	1.47e6	1.50e6	1.27e6	1.36e6
CG5382	DRSC15786	1.51e6	1.64e6	1.11e6	1.20e6
Klp98A	DRSC16724	1.51e6	1.58e6	1.01e6	1.18e6
NPFR	DRSC12173	1.67e6	1.80e6	1.29e6	1.40e6
Mlc-c	DRSC18683	5.52e5		8.34e5	
TrpRS	DRSC14097	1.76e6	1.77e6	1.21e6	1.33e6
CG9864	DRSC07346	1.58e6	1.60e6	1.15e6	1.36e6
CG14984	DRSC08442	1.45e6	1.30e6	9.68e5	1.21e6
Wdr62	DRSC00081	1.62e6	1.75e6	1.10e6	1.32e6
Wdr62	DRSC00082	1.73e6	1.91e6	1.16e6	1.31e6
Wdr62	DRSC00701	1.33e6	1.34e6	7.79e5	9.61e5
crim	DRSC10573	1.37e6	1.39e6	1.04e6	1.11e6
CG4887	DRSC00670	1.68e6	1.70e6	1.10e6	1.23e6
CG13606	DRSC14609	1.41e6	1.44e6	9.94e5	1.06e6
CG11529	DRSC09839	1.44e6	1.34e6	1.14e6	1.22e6
CG4650	DRSC02767	1.51e6	1.59e6	1.21e6	1.34e6
hzg	DRSC10549	1.36e6	1.46e6	1.12e6	1.25e6
timeout	DRSC12950	1.44e6	1.64e6	1.10e6	1.23e6
timeout	DRSC17078	1.45e6	1.46e6	1.15e6	1.27e6
timeout	DRSC17079	1.42e6	1.42e6	1.15e6	1.26e6
timeout	DRSC17080	1.36e6	1.44e6	1.14e6	1.30e6
timeout	DRSC17081	1.52e6	1.54e6	9.99e5	1.09e6
CR40450 + CG32767	DRSC18387	5.00e5		6.98e5	

A few values from above.
Result of Wdr62 [DRSC00082] under “Kc cell number, rep 2”: 1.91e6
UbcE2M [DRSC10828], Kc cell number, rep 1 → 1.46e6
Under “Kc cell number, rep 2”, odd [DRSC00832] has 1.01e6 (active)
Result of CG15109 [DRSC06536] under “Kc cell number, rep 1”: 1.52e6
Under “S2R+ cell number, rep 1”, Dph5 [DRSC16653] reads 1.16e6
For “Kc cell number, rep 2”, tzn [DRSC11755] has 1.89e6
